Test results: the supplement of paper PMC10849652
The other results are listed elsewhere or left out.

The chains behind the UniProt entries cited, without tags or fusion partners. Where a name states a change or a piece, a line headed by the entry shows the natural chain unless it says otherwise.
UniProt Q9UID6: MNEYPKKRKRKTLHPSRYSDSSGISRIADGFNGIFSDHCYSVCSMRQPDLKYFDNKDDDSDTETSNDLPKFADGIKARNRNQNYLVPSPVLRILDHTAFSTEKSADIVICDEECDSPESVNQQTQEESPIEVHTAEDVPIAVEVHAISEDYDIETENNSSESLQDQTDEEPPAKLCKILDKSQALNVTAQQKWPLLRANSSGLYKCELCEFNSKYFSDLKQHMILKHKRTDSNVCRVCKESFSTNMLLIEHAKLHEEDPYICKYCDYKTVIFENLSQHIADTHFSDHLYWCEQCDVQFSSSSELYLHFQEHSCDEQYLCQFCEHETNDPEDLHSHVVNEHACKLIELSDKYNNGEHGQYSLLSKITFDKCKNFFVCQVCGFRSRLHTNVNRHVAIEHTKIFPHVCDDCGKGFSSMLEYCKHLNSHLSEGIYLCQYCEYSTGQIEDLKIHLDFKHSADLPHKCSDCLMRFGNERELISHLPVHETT
UniProt Q9H582: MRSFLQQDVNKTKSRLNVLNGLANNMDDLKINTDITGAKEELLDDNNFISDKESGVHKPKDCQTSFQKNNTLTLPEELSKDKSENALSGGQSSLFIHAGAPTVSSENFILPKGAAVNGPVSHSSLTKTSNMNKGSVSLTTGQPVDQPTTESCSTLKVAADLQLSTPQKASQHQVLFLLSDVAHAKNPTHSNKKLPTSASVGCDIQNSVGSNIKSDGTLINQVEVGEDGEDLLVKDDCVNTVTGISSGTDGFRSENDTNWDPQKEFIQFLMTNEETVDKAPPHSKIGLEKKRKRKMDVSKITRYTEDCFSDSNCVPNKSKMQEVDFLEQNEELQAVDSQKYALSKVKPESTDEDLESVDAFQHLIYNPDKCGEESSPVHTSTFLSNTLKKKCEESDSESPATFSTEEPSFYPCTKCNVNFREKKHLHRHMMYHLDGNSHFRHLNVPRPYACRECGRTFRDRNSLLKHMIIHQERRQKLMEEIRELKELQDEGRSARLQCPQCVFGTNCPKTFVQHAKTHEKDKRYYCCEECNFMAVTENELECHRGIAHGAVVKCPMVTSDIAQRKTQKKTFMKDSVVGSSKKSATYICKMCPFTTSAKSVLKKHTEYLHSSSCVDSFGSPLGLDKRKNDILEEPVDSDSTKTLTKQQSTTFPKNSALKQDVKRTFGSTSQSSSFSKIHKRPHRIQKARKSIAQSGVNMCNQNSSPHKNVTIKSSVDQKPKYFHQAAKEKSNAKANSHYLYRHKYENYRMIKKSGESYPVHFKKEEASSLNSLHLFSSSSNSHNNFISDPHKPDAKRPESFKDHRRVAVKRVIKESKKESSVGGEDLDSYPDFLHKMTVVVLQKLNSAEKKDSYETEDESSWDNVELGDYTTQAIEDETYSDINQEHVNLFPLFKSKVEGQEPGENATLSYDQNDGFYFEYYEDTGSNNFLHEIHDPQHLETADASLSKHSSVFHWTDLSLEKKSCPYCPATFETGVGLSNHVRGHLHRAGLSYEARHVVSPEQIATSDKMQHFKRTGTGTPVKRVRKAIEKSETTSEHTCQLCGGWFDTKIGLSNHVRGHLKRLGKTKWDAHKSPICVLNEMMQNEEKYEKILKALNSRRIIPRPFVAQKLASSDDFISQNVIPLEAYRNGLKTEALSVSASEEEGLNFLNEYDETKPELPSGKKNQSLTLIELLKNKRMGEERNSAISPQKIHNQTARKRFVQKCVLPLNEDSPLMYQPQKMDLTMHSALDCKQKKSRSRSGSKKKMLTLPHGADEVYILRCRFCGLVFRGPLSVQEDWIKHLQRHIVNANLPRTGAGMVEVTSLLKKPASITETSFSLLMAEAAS
UniProt Q499Z4: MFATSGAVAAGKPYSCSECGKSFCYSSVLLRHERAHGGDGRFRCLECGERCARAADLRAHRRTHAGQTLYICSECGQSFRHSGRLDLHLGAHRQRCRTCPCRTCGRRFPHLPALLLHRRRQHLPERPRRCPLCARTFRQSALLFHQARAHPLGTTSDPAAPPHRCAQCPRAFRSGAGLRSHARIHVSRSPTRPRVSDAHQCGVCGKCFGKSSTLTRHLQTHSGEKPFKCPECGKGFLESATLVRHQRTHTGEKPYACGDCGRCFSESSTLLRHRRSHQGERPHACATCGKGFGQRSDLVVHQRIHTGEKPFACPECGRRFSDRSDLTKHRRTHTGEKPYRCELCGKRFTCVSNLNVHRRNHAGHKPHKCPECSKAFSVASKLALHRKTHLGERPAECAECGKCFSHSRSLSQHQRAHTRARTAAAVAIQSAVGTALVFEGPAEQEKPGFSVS

These compounds were tested against ZNF639 (UniProt Q9UID6) (assay: log2 fold change, soluble protein after heating vs DMSO (PISA); higher = thermal stabilisation; K562 cells, 10 uM, 30 min; active = over 0.2 and 3.5 SD of the protein, either way, in both replicates (recomputed)).
How it was run: (§1)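 K562 cells (2×10^6 cells/mL) were treated with 10 μM compound for 30 min, and aliquots were heated for 3 min over 48°C-58°C. Pooled aliquots were extracted in PBS with 0.5% NP-40 at 4°C, and the supernatant after 21,000xg for 90 min was measured by TMTpro 16plex LC-MS/MS with channel sums equalised. Reported thermal stability, relative to control samples and from duplicates, is a log2 fold change.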

log2 fold change, inactive:
Cc1cccc(-c2[nH]c(C(C)(C)C)nc2-c2ccc3nccnc3c2)n1 -0.162
Cc1cc(Nc2cc(CN3CCOCC3)c3nc(C)c(Cc4ccc(Cl)cc4F)n3n2)n[nH]1 [gandotinib] -0.207
Cc1cccc(CC(=O)N2CCc3c2ccc(-c2cn(C)c4ncnc(N)c24)c3F)n1 -0.001
CCn1cc(-c2ccnc3[nH]c(-c4cccc(CN(C)C)c4)cc23)c(-c2ccc(NC(=O)N(C)C)cc2)n1 -0.149
CC(C)N(C[C@H]1O[C@@H](n2cnc3c(N)ncnc32)[C@H](O)[C@@H]1O)[C@H]1C[C@@H](CCc2nc3cc(C(C)(C)C)ccc3[nH]2)C1 [pinometostat] 0.127
CN1CCC(CNc2ccc3ncc(-c4cccc(OC(F)(F)F)c4)n3n2)CC1 -0.391
COc1ccc(Cn2ccc3ccc(C(=O)NO)cc32)cc1 -0.155
CS(=O)(=O)N1CCN(Cc2cc3nc(-c4cccc5[nH]ncc45)nc(N4CCOCC4)c3s2)CC1 [pictilisib] 0.058
O=C(CCCCCCC(=O)Nc1ccccc1)NO [vorinostat] -0.011
C[C@@H](Oc1cc(-c2cnn(C3CCNCC3)c2)cnc1N)c1c(Cl)ccc(F)c1Cl [crizotinib] 0.219
Cc1ccc(-n2nc(C(C)(C)C)cc2NC(=O)Nc2ccc(OCCN3CCOCC3)c3ccccc23)cc1 [doramapimod] 0.071
O=C(Nc1nc2ccccc2n1CCN1CCOCC1)c1cccc([N+](=O)[O-])c1 [IRAK-1-4 Inhibitor I] -0.224

The compounds below were run against ZNF644 (UniProt Q9H582) in the same assay as above.
How it was run: as §1

log2 fold change, inactive:
Cc1cccc(-c2[nH]c(C(C)(C)C)nc2-c2ccc3nccnc3c2)n1 -0.452
CC(C)N(C[C@H]1O[C@@H](n2cnc3c(N)ncnc32)[C@H](O)[C@@H]1O)[C@H]1C[C@@H](CCc2nc3cc(C(C)(C)C)ccc3[nH]2)C1 [pinometostat] 0.01
COc1ccc(Cn2ccc3ccc(C(=O)NO)cc32)cc1 0.203
C[C@@H](Oc1cc(-c2cnn(C3CCNCC3)c2)cnc1N)c1c(Cl)ccc(F)c1Cl [crizotinib] 0.149
Cc1ccc(-n2nc(C(C)(C)C)cc2NC(=O)Nc2ccc(OCCN3CCOCC3)c3ccccc23)cc1 [doramapimod] -0.282
O=C(Nc1nc2ccccc2n1CCN1CCOCC1)c1cccc([N+](=O)[O-])c1 [IRAK-1-4 Inhibitor I] 0.019

The compounds below were run against ZNF672 (UniProt Q499Z4) in the same assay as above.
How it was run: as §1

log2 fold change, inactive:
CCCc1cc(C)[nH]c(=O)c1CNC(=O)c1cc(-c2ccnc(N3CCN(C)CC3)c2)cc2c1cnn2C(C)C 0.015
Cc1cccc(-c2[nH]c(C(C)(C)C)nc2-c2ccc3nccnc3c2)n1 0.08
COc1cc2ncnc(Nc3ccc(F)c(Cl)c3)c2cc1OCCCN1CCOCC1 [gefitinib] -0.196
Cc1cc(Nc2cc(CN3CCOCC3)c3nc(C)c(Cc4ccc(Cl)cc4F)n3n2)n[nH]1 [gandotinib] 0.251
NC1(c2ccc(-c3nc4ccn5c(=O)[nH]nc5c4cc3-c3ccccc3)cc2)CCC1 -0.143
O=C1NC(=O)/C(=C\c2ccc3nccnc3c2)S1 -0.033
CCN(CCCOc1ccc2c(Nc3cc(CC(=O)Nc4cccc(F)c4)[nH]n3)ncnc2c1)CCOP(=O)(O)O [barasertib] -0.074
Cc1ncc(-c2ccnc(Nc3ccc(S(C)(=O)=O)cc3)n2)n1C(C)C 0.089
Cc1cccc(CC(=O)N2CCc3c2ccc(-c2cn(C)c4ncnc(N)c24)c3F)n1 0.061
COc1cccc2cc(-c3nc([C@H]4CC[C@H](C(=O)O)CC4)n4ncnc(N)c34)[nH]c12 0.046
Cc1ccc(NC(=O)c2ccc(CN3CC[C@H](N(C)C)C3)c(C(F)(F)F)c2)cc1Nc1nccc(-c2cncnc2)n1 [bafetinib] 0.157
CCn1cc(-c2ccnc3[nH]c(-c4cccc(CN(C)C)c4)cc23)c(-c2ccc(NC(=O)N(C)C)cc2)n1 -0.037
CC(C)N(C[C@H]1O[C@@H](n2cnc3c(N)ncnc32)[C@H](O)[C@@H]1O)[C@H]1C[C@@H](CCc2nc3cc(C(C)(C)C)ccc3[nH]2)C1 [pinometostat] 0.169
CN1CCC(CNc2ccc3ncc(-c4cccc(OC(F)(F)F)c4)n3n2)CC1 -0.151
C[C@@H](N)c1ccc(C(=O)Nc2ccnc3[nH]ccc23)cc1 -0.014
CC[C@H](C)n1cc(C)c2c(C(=O)NCc3c(C)cc(C)[nH]c3=O)cc(-c3ccc(N4CCNCC4)nc3)cc21 0.06
COc1ccc(Cn2ccc3ccc(C(=O)NO)cc32)cc1 -0.124
CS(=O)(=O)N1CCN(Cc2cc3nc(-c4cccc5[nH]ncc45)nc(N4CCOCC4)c3s2)CC1 [pictilisib] 0
COc1cc(Nc2ncc3c(n2)-c2ccc(Cl)cc2C(c2c(F)cccc2OC)=NC3)ccc1C(=O)O [alisertib] -0.142
Cn1cc(-c2ccc3c(c2)CCN3C(=O)Cc2cccc(C(F)(F)F)c2)c2c(N)ncnc21 -0.171
O=C(CCCCCCC(=O)Nc1ccccc1)NO [vorinostat] 0.28
C[C@@H](Oc1cc(-c2cnn(C3CCNCC3)c2)cnc1N)c1c(Cl)ccc(F)c1Cl [crizotinib] -0.163
Cc1ccc(-n2nc(C(C)(C)C)cc2NC(=O)Nc2ccc(OCCN3CCOCC3)c3ccccc23)cc1 [doramapimod] 0.196
Cc1cn(-c2cc(NC(=O)c3ccc(C)c(Nc4nccc(-c5cccnc5)n4)c3)cc(C(F)(F)F)c2)cn1 [nilotinib] -0.047
O=C(O)c1ccc2c(c1)nc(Nc1cccc(Cl)c1)c1ccncc12 [silmitasertib] 0.012
C=CC(=O)N1CCC[C@@H](n2nc(-c3ccc(Oc4ccccc4)cc3)c3c(N)ncnc32)C1 [ibrutinib] 0.045
O=C(Nc1nc2ccccc2n1CCN1CCOCC1)c1cccc([N+](=O)[O-])c1 [IRAK-1-4 Inhibitor I] 0.106
Cc1nc(Nc2n[nH]c3c2CN(C(=O)N[C@H](CN(C)C)c2ccccc2)C3(C)C)c2sccc2n1 0.029
CO[C@H]1C[C@@H]2CC[C@@H](C)[C@@](O)(O2)C(=O)C(=O)N2CCCC[C@H]2C(=O)O[C@H]([C@H](C)C[C@@H]2CC[C@H](n3cnnn3)[C@H](OC)C2)CC(=O)[C@H](C)/C=C(\C)[C@@H](O)[C@@H](OC)C(=O)[C@H](C)C[C@H](C)/C=C/C=C/C=C/1C [zotarolimus] 0.028
FC(F)(F)c1ccc(/C=C/c2nc(COc3ccc(CCCCn4ccnn4)cc3)co2)cc1 [mubritinib] -0.154
